Where two headings read alike, the source gives them in different places. These are yes or no findings as the source states them, for the method shown. Binding seen in cells or lysates may run through a third protein. Some binding calls cover weakened binding; strength is not graded here.

The chains behind the UniProt entries cited, without tags or fusion partners. Residues count along the entry.
UniProt Q9BZS1, residues 1-417: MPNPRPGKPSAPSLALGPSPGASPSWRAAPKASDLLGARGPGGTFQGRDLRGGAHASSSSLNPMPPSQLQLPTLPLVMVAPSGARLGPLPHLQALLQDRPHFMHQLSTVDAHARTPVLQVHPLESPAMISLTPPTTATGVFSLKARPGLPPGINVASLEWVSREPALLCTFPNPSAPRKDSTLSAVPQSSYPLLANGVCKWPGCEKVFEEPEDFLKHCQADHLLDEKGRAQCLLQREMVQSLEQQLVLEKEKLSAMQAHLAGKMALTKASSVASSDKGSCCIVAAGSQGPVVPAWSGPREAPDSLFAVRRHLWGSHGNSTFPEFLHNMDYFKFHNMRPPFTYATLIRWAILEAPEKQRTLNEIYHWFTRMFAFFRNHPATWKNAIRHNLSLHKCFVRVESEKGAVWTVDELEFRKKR
UniProt Q13422: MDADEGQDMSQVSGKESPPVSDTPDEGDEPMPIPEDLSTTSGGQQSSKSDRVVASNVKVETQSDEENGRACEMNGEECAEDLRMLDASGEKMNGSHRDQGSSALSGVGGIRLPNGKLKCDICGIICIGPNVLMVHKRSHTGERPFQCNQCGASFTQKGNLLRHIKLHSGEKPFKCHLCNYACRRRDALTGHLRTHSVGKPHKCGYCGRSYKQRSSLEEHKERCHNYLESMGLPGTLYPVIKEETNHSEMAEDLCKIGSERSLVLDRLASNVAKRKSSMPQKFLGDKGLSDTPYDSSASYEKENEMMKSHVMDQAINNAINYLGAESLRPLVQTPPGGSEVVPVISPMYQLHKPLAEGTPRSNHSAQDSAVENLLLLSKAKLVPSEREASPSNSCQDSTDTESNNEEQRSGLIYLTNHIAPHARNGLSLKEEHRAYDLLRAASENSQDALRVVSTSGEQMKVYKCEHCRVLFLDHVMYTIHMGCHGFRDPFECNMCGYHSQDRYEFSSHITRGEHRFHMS
UniProt P81183: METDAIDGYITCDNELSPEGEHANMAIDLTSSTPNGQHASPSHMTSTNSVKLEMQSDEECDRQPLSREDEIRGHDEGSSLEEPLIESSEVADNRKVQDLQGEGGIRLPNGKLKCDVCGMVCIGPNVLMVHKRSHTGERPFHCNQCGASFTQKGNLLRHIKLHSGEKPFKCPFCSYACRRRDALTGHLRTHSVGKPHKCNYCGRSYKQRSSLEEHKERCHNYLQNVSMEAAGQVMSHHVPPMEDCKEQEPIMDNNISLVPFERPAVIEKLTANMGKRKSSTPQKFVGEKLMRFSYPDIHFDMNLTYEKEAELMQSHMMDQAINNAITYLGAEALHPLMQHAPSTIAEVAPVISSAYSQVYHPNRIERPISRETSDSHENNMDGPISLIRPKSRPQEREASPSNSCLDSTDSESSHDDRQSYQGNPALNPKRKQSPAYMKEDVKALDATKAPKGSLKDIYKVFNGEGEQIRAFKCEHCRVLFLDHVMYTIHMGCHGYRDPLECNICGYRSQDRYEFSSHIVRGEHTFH

Drawing on article doi:10.1101/2023.08.12.553084, this text covers binding for two substances.

What all share (test): co-IP
Test [1] addresses FOXP3 (endogenous, human Treg cells) (human (endogenous in Treg cells)) (UniProt Q9BZS1).
Test [2] addresses T1, Foxp3 (endogenous, mouse Treg cells) (mouse (endogenous in Treg cells)) (UniProt Q99JB6).
T1 sequence: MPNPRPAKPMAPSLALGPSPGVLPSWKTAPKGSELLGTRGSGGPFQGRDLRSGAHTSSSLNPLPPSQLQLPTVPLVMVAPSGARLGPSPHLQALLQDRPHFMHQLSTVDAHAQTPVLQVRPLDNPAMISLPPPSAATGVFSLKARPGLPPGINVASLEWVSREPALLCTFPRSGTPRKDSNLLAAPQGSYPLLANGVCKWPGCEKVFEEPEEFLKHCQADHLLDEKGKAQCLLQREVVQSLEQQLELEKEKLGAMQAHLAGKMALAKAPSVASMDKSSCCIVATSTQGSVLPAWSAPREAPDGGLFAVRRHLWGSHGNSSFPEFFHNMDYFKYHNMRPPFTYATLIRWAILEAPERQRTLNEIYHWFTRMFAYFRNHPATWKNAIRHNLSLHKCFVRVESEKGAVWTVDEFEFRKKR

Test [3] deals with T1, Foxp3 (endogenous, mouse Treg cells) (mouse (endogenous in Treg cells)). The source holds these as a separate data set.

With “IKZF1 (endogenous, human Treg cells) (from UniProt Q13422 1-519)”, the binding entry in test [1] is given as “binds”. For “Ikzf2 (endogenous, mouse Treg cells) (from UniProt P81183 1-526)”, the binding entry in test [2] and in test [3] was “binds” in each case.
